# Experimental data: publication PMC10093842
# By UniProt entry, the sequences of proteins in these tests, tags left out.
# UniProt P35637: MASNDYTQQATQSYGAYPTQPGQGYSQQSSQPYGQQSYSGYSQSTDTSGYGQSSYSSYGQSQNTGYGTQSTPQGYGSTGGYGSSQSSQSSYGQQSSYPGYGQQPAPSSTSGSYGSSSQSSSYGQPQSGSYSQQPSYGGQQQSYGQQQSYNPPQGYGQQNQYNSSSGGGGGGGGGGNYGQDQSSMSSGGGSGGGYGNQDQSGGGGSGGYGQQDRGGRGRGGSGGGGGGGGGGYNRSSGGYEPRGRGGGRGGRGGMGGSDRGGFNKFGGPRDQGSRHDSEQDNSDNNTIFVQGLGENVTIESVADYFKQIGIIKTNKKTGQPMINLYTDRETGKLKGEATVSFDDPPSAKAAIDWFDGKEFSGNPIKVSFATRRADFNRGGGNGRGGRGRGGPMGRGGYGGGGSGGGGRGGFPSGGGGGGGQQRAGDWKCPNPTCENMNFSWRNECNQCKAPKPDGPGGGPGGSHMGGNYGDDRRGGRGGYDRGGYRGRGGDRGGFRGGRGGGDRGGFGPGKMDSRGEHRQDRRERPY
# UniProt Q12905: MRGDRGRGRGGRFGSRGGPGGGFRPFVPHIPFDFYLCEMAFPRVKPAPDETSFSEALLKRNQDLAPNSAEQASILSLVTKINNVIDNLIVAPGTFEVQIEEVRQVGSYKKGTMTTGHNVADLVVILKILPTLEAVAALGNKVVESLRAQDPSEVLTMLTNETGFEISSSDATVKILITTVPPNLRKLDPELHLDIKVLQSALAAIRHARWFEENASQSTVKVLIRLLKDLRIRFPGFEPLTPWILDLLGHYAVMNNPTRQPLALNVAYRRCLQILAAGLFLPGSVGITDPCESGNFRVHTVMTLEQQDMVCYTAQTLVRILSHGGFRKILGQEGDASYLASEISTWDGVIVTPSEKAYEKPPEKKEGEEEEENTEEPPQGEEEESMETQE
# UniProt Q14676: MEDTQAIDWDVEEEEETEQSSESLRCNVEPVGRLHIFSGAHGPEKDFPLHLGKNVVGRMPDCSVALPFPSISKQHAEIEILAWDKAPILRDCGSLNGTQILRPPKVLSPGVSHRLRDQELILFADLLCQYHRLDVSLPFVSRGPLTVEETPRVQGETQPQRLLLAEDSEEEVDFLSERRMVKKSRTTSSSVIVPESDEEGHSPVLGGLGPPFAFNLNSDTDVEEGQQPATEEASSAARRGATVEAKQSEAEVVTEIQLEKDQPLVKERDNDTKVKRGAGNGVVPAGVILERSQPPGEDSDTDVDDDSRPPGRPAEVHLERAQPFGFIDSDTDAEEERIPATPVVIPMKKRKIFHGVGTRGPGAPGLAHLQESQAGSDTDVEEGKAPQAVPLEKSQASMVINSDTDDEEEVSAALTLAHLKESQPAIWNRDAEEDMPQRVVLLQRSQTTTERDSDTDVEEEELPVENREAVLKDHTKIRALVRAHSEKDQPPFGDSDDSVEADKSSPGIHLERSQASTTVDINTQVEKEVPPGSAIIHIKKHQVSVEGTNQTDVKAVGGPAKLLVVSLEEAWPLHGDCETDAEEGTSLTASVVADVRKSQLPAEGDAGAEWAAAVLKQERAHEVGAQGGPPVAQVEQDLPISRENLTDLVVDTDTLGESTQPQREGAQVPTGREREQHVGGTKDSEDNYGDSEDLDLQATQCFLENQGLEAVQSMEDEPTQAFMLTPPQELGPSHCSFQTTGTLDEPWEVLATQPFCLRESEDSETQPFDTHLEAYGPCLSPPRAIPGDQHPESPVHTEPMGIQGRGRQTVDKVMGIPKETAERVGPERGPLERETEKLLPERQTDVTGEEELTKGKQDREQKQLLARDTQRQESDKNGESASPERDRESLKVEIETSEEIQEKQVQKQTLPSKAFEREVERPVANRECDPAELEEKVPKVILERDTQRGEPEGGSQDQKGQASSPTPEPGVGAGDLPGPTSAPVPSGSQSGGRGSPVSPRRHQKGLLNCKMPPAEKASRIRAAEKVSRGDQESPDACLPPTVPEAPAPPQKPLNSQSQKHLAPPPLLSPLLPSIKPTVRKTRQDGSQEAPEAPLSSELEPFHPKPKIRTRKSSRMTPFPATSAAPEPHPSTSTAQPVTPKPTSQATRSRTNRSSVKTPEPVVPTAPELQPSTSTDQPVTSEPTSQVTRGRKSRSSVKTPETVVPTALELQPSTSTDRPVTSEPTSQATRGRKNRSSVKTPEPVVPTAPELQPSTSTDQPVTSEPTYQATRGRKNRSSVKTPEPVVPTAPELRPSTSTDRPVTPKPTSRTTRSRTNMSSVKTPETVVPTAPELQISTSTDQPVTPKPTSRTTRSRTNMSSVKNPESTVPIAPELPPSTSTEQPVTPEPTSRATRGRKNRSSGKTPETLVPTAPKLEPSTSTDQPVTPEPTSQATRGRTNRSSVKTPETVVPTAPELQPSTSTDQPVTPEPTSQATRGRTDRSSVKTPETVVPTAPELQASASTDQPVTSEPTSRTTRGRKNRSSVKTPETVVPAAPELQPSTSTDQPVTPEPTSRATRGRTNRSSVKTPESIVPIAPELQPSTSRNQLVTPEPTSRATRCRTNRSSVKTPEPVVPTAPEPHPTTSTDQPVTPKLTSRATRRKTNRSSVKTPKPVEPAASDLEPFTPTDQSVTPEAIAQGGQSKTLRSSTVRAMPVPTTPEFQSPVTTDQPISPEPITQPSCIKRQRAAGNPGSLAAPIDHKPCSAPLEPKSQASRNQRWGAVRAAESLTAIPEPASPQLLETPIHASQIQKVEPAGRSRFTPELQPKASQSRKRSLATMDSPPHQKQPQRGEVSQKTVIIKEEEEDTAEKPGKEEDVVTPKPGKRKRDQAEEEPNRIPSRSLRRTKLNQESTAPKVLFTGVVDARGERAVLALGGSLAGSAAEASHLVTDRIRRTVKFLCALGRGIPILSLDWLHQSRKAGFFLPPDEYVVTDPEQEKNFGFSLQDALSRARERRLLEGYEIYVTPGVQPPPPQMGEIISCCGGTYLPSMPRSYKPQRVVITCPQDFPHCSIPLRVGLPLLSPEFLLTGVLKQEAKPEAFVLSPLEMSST
# UniProt Q14980: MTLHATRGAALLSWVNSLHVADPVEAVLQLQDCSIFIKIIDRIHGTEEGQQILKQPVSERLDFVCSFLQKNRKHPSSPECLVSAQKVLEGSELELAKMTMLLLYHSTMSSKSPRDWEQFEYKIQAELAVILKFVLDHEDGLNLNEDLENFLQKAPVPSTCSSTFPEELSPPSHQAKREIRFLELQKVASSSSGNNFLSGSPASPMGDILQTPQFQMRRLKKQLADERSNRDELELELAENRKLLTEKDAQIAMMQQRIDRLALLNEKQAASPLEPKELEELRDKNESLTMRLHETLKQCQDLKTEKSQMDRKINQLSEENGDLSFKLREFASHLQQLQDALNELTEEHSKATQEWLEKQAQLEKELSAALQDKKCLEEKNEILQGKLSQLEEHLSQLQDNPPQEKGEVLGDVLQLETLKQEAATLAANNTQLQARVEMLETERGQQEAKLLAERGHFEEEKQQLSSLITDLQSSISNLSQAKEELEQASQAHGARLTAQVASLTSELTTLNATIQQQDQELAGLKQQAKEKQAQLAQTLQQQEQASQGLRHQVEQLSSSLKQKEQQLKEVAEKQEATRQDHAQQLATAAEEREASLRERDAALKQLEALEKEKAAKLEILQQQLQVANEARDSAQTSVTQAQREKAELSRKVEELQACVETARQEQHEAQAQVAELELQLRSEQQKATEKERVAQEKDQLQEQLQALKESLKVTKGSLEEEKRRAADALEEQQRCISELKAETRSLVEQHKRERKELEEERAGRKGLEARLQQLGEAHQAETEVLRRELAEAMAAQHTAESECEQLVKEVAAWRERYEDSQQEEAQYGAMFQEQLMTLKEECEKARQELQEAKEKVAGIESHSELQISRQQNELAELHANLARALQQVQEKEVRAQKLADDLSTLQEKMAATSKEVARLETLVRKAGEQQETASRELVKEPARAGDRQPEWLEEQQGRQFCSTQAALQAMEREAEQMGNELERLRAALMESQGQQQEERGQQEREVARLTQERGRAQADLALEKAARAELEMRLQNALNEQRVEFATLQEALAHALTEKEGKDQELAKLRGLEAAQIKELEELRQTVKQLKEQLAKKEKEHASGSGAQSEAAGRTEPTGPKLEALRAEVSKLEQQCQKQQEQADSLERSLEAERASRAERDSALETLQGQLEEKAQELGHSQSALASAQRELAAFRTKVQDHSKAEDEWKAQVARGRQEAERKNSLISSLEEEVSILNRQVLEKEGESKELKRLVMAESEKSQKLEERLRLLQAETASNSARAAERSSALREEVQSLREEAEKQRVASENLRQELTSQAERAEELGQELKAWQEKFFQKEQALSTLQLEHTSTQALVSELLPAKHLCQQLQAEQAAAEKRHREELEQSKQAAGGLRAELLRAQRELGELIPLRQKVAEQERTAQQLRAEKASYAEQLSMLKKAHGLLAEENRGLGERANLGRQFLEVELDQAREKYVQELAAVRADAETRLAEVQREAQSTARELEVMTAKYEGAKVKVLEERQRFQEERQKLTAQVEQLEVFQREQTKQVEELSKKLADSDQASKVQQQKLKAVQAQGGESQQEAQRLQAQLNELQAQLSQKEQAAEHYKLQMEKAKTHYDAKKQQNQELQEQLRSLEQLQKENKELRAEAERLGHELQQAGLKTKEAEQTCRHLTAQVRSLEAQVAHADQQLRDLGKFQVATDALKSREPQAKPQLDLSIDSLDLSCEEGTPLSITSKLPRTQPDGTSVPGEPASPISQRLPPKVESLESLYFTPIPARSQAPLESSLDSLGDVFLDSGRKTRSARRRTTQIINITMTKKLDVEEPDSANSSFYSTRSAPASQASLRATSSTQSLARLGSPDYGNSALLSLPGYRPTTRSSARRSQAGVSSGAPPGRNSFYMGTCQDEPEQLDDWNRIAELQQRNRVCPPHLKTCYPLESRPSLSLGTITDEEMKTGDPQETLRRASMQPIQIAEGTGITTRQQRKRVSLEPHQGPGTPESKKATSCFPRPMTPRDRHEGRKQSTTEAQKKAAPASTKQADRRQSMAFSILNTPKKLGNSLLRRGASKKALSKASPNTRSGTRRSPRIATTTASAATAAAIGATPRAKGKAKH
# UniProt O75475: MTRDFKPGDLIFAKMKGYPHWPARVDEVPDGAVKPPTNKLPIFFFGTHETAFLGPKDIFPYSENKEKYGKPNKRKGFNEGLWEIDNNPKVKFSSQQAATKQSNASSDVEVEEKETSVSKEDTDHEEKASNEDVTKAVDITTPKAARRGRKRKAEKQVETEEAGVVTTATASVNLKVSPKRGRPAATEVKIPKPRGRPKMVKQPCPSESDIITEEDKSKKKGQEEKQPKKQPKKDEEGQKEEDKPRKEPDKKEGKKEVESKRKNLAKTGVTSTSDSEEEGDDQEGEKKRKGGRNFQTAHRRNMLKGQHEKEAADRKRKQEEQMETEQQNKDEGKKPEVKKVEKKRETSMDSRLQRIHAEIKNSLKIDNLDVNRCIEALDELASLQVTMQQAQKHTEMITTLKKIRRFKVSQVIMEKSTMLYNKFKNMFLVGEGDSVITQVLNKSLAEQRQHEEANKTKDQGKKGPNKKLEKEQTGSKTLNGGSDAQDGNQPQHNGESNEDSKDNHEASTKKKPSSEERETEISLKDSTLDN
# UniProt Q9UKM9: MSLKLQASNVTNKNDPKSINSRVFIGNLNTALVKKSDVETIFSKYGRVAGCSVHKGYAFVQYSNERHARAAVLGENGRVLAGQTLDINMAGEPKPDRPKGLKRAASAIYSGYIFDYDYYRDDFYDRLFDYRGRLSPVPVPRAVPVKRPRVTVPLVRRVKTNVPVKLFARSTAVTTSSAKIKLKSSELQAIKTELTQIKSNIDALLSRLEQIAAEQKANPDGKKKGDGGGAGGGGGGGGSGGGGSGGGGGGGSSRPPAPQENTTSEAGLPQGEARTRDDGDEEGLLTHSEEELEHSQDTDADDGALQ
# UniProt Q96E39: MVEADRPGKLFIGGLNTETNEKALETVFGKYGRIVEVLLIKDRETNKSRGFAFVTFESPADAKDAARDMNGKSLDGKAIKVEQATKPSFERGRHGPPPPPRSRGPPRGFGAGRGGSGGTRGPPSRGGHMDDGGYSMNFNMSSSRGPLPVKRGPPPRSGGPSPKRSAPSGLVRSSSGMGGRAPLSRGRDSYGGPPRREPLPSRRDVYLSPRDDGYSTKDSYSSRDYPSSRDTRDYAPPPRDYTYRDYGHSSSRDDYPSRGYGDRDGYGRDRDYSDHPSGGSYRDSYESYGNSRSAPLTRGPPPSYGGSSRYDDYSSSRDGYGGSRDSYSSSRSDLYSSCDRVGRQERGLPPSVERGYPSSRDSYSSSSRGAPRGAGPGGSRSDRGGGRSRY
# No constants are given. Whether binding was seen depends on the method and setting. In cells and extracts the contact can be indirect. Here binding means that the protein was enriched with, or labelled near, the bait; the list need not be complete. Tags and fused reporters may be left off the sequences shown.
# T1: Flag-tagged NUSAP1 full-length (nucleolar and spindle-associated protein 1) (human) (UniProt Q9BXS6)
# T1 sequence: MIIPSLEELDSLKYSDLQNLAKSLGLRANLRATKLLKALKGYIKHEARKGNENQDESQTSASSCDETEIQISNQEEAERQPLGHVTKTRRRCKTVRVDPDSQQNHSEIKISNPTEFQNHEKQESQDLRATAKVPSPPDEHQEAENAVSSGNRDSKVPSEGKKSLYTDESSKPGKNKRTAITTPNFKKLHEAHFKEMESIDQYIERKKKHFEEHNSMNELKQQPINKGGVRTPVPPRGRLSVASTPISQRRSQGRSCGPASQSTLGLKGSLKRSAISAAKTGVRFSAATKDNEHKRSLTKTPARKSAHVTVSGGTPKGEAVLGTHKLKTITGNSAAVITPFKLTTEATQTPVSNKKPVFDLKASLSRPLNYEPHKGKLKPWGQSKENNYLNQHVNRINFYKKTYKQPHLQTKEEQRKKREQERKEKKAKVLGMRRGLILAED
# B1: ZNF346 (protein, UniProt Q9UL40 1-294)
# chain: MEYPAPATVQAADGGAAGPYSSSELLEGQEPDGVRFDRERARRLWEAVSGAQPVGREEVEHMIQKNQCLFTNTQCKVCCALLISESQKLAHYQSKKHANKVKRYLAIHGMETLKGETKKLDSDQKSSRSKDKNQCCPICNMTFSSPVVAQSHYLGKTHAKNLKLKQQSTKVEALHQNREMIDPDKFCSLCHATFNDPVMAQQHYVGKKHRKQETKLKLMARYGRLADPAVTDFPAGKGYPCKTCKIVLNSIEQYQAHVSGFKHKNQSPKTVASSLGQIPMQRQPIQKDSTTLED
# B2: ILF3 (protein, UniProt Q12906 1-894)
# chain: MRPMRIFVNDDRHVMAKHSSVYPTQEELEAVQNMVSHTERALKAVSDWIDEQEKGSSEQAESDNMDVPPEDDSKEGAGEQKTEHMTRTLRGVMRVGLVAKGLLLKGDLDLELVLLCKEKPTTALLDKVADNLAIQLAAVTEDKYEILQSVDDAAIVIKNTKEPPLSLTIHLTSPVVREEMEKVLAGETLSVNDPPDVLDRQKCLAALASLRHAKWFQARANGLKSCVIVIRVLRDLCTRVPTWGPLRGWPLELLCEKSIGTANRPMGAGEALRRVLECLASGIVMPDGSGIYDPCEKEATDAIGHLDRQQREDITQSAQHALRLAAFGQLHKVLGMDPLPSKMPKKPKNENPVDYTVQIPPSTTYAITPMKRPMEEDGEEKSPSKKKKKIQKKEEKAEPPQAMNALMRLNQLKPGLQYKLVSQTGPVHAPIFTMSVEVDGNSFEASGPSKKTAKLHVAVKVLQDMGLPTGAEGRDSSKGEDSAEETEAKPAVVAPAPVVEAVSTPSAAFPSDATAEQGPILTKHGKNPVMELNEKRRGLKYELISETGGSHDKRFVMEVEVDGQKFQGAGSNKKVAKAYAALAALEKLFPDTPLALDANKKKRAPVPVRGGPKFAAKPHNPGFGMGGPMHNEVPPPPNLRGRGRGGSIRGRGRGRGFGGANHGGYMNAGAGYGSYGYGGNSATAGYSQFYSNGGHSGNASGGGGGGGGGSSGYGSYYQGDNYNSPVPPKHAGKKQPHGGQQKPSYGSGYQSHQGQQQSYNQSPYSNYGPPQGKQKGYNHGQGSYSYSNSYNSPGGGGGSDYNYESKFNYSGSGGRSGGNSYGSGGASYNPGSHGGYGGGSGGGSSYQGKQGGYSQSNYNSPGSGQNYSGPPSSYQSSQGGYGRNADHSMNYQYR
# Molecular target: T1, Flag-tagged NUSAP1 full-length (nucleolar and spindle-associated protein 1) (human)
# Test: affinity purification with mass spectrometry; 293T cells transiently transfected with Flag-NUSAP1 or empty vector, treated with nocodazole or DMSO for 24 h; lysis in 0.2% NP-40 buffer (50 mM Tris-HCl pH 8.0, 150 mM NaCl), micrococcal nuclease; anti-Flag M2 antibody and Protein-G Dynabeads, 4 °C; hits by SAINT (score > 0.9, BFDR < 0.05), triplicates
row,Molecule,binding
1,FUS (from UniProt P35637 1-526),binds
2,ILF2 (from UniProt Q12905 1-390),binds
3,MDC1 (from UniProt Q14676 1-2089),binds
4,NUMA1 (from UniProt Q14980 1-2115),binds
5,PSIP1 (from UniProt O75475 1-530),binds
6,RALY (from UniProt Q9UKM9 1-306),binds
7,RALYL (from UniProt Q86SE5 1-291),binds
8,RBMX (from UniProt P38159 1-391),binds
9,RMXL1 (from UniProt Q96E39 1-390),binds
10,B1,binds
11,B2,binds
